# From article PMC7522982, “PKIS deep dive yields a chemical starting point for dark kinases and a cell active BRSK2 inhibitor” (Scientific Reports, 2020)
# Legend:
# [1] = tested on: 305–311 kinases; parameters: method as in PMID 24651269; conditions: 305–311 kinases at 1 μM; mobility shift assays and ELISA; cited from earlier work
# [2] = tested on: 403 wild type human kinases; assay: DiscoverX scanMAX competition binding assay, whole panel
SMILES,S10(1 μM) score [1],also measured
COc1cc2nccc(Oc3ccc(NC(=O)C4(C(=O)Nc5ccc(F)cc5)CC4)cc3)c2cc1OC [cabozantinib],> 0.15,
COc1cc(Nc2c(C#N)cnc3cc(OCCCN4CCN(C)CC4)c(OC)cc23)c(Cl)cc1Cl [Bosutinib],> 0.15,
COc1ccc2[nH]c3c4[nH]c5ccc(OC)cc5c4c4c(c3c2c1)C(=O)NC4=O [GW296115],,number of kinases inhibited > 90% at 1 μM [2]: 25; number of kinases with ≥ 75% inhibition at 1 μM [2]: 41; selectivity index (S10) at 1 μM [2]: 0.062
CCN(CC)CCNC(=O)c1c(C)[nH]c(/C=C2\C(=O)Nc3ccc(F)cc32)c1C [sunitinib],> 0.15,
Cc1nc(Nc2ncc(C(=O)Nc3c(C)cccc3Cl)s2)cc(N2CCN(CCO)CC2)n1 [dasatinib],> 0.15,
Cc1ccc(C(=O)Nc2ccc(CN3CCN(C)CC3)c(C(F)(F)F)c2)cc1C#Cc1cnc2cccnn12 [ponatinib],> 0.15,

# For some assays here: The index is printed as in the source, without its formula.
